Some of the results follow. Repeats are few or missing, and single values can be far off.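 Cells were imaged in 1,536-well plates, and nuclei stained with an antibody against cleaved PARP were counted against all DNA-stained nuclei to give the apoptosis fraction. Screening doses were chosen to leave most cells alive, and resting and induced cleaved-PARP levels differ strongly between cell lines.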
system: CBRC034 (line from a melanoma biopsy); experiment: cleaved PARP positive nuclei fraction relative to DMSO control; melanoma cells; higher = more apoptosis; conditions: library dose: low library concentration; 72 h

SMILES | cleaved PARP positive nuclei fraction [%]
O=C(CCCCCCC(=O)Nc1ccccc1)NO [vorinostat] + COc1ccc2c(c1)CCC1C2CCC2(C)C(NCCCCCCN3C(=O)C=CC3=O)CCC12 [U73122] (first compound 0.08 µM, partner dose 0.4 µM) | 173
Cn1nnc2c(C(N)=O)ncn2c1=O [temozolomide] + COc1ccc(COc2ccc(Cc3cnc(N)nc3N)cc2OC)cc1 [GW2580] (first compound 2 µM, partner dose 1 µM) | 88.2
OCCn1cc(-c2cnc3nnn(Cc4ccc5ncccc5c4)c3n2)cn1 + COc1ccc(-c2ccc3c(N4CCOCC4)nc(N4C[C@@H](C)O[C@@H](C)C4)nc3n2)cc1CO [KU0063794] (first compound 1 µM, partner dose 0.02 µM) | 854
Cc1ccc(NC(=O)c2cccc(N(C)C)c2)cc1NC(=O)c1ccc(O)cc1 + Cn1cc(/C=C2\C(=O)Nc3cccnc32)c2ccccc21 [GW441756] (first compound 2 µM, partner dose 0.4 µM) | 45.5
Cc1ccc(NC(=O)c2cccc(N(C)C)c2)cc1NC(=O)c1ccc(O)cc1 + CCCCCCCCCCCC1=C(O)C(=O)C=C(O)C1=O [Embelin] (first compound 2 µM, partner dose 1.2 µM) | 48.2
Cn1cncc1[C@@](N)(c1ccc(Cl)cc1)c1ccc2c(c1)c(-c1cccc(Cl)c1)cc(=O)n2C [tipifarnib] + Cc1cc([N+](=O)[O-])ccc1NS(=O)(=O)c1cc(Cl)ccc1Cl [FH535] (first compound 0.01 µM, partner dose 1 µM) | 442
Cn1c(Nc2ccc(C(F)(F)F)cc2)nc2cc(Oc3ccnc(-c4ncc(C(F)(F)F)[nH]4)c3)ccc21 + COc1ccc2c(c1)CCC1C2CCC2(C)C(NCCCCCCN3C(=O)C=CC3=O)CCC12 [U73122] (first compound 0.08 µM, partner dose 0.4 µM) | 459
Cn1cncc1[C@@](N)(c1ccc(Cl)cc1)c1ccc2c(c1)c(-c1cccc(Cl)c1)cc(=O)n2C [tipifarnib] + Oc1cc(-c2nc(-c3ccccc3)[nH]c2-c2ccncc2)ccc1Cl [L779450] (first compound 0.01 µM, partner dose 0.2 µM) | 55
OCCn1cc(-c2cnc3nnn(Cc4ccc5ncccc5c4)c3n2)cn1 + O=C(O)C(=O)Nc1sc2c(c1C(=O)O)CCNC2 [TCS401] (first compound 1 µM, partner dose 1.66667 µM) | 46.2
C=CCn1c(=O)c2cnc(Nc3ccc(N4CCN(C)CC4)cc3)nc2n1-c1cccc(C(C)(C)O)n1 + Oc1nc(-c2ccc(C(F)(F)F)cc2)nc2c1CSCC2 [XAV939] (first compound 0.02 µM, partner dose 2 µM) | 43.7
Nc1cccc2c1CN(C1CCC(=O)NC1=O)C2=O (stereo unspecified) [lenalidomide] + CCCCCCCCCCCC1=C(O)C(=O)C=C(O)C1=O [Embelin] (first compound 1 µM, partner dose 1.2 µM) | 23
C[C@@H]1CCN(C(=O)CC#N)C[C@@H]1N(C)c1ncnc2[nH]ccc12 + Oc1cc(-c2nc(-c3ccccc3)[nH]c2-c2ccncc2)ccc1Cl [L779450] (first compound 1 µM, partner dose 0.2 µM) | 90
Cc1cc(N2CCOCC2)cc2[nH]c(-c3c(NC[C@@H](O)c4cccc(Cl)c4)cc[nH]c3=O)nc12 + Cc1cc([N+](=O)[O-])ccc1NS(=O)(=O)c1cc(Cl)ccc1Cl [FH535] (first compound 0.2 µM, partner dose 1 µM) | 143
C=CCn1c(=O)c2cnc(Nc3ccc(N4CCN(C)CC4)cc3)nc2n1-c1cccc(C(C)(C)O)n1 + O=C1NC(=O)/C(=C/c2ccc(-c3ccc(F)cc3O)o2)S1 [AS252424] (first compound 0.02 µM, partner dose 1 µM) | 29.8
Cc1ccc(NC(=O)c2cccc(N(C)C)c2)cc1NC(=O)c1ccc(O)cc1 + N#Cc1c(O)c2c(-c3ccc(-c4ccccc4O)cc3)csc2[nH]c1=O [A769662] (first compound 2 µM, partner dose 2 µM) | 82.9
Cn1cncc1[C@@](N)(c1ccc(Cl)cc1)c1ccc2c(c1)c(-c1cccc(Cl)c1)cc(=O)n2C [tipifarnib] + CCN(CC)CCCCNc1ncc2cc(-c3cc(OC)cc(OC)c3)c(NC(=O)NC(C)(C)C)nc2n1 [PD173074] (first compound 0.01 µM, partner dose 0.1 µM) | 90.5

— the supplement of paper PMC4604168 (melanoma cell lines)
